From PubChem BioAssay AID1347426 (Functional Genomics Laboratory (NCATS/FGL), 2020) come the findings set out here.

The campaign covered roughly 31,000 sequences. About 1,400 (4.5%) were called active.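 How the source made its calls: active means median seed-adjusted z-score above 1 or below -1; inactive means the rest.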 This is one part of the list.

This assay is described as follows: Novel Modifiers of Survival Motor Neuron (SMN) Protein: Gene Identification via Genome-wide siRNA Screen.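 Further: luminescence tracks full-length SMN protein made from the SMN2 reporter.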 Particulars: HEK293T SMN2-luciferase reporter, siRNA knockdown, 72 h; actives lie on both sides. A digest of the protocol:
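HEK293T cells stably carrying an SMN2 promoter/splicing cassette–luciferase reporter were reverse-transfected with 1 pmol siRNA per well (druggable-genome library, 3 siRNAs per gene) and grown 72 h at 37 °C. Luminescence, normalized to negative-control siRNA and log10-transformed, was scored as MAD.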
Background: Reporter assays use an easily measured gene product as a stand-in for the process of interest.
Turning to CAUCUUCUAUGGGAUGAUUTT against AMDHD2, the median seed-adjusted z-score was inactive: -0.0707.
Regarding GCAGUACUCUGGAAUAUAUTT against SLC25A24, the median seed-adjusted z-score is inactive: -0.0384.
For CGGGCGAGUUUACUAUGUATT against ITCH, the median seed-adjusted z-score was inactive: 0.199.
For the sequence UCGAUGCUCUCACCACGCATT against PRSSL1, the median seed-adjusted z-score was inactive: -0.221.
As to CGUCGACUAUGGAGACAGATT against TSSK1B, the median seed-adjusted z-score is inactive: -0.169.
With AGCAUGUGGUAGACGAGAATT against RGS19, the median seed-adjusted z-score is inactive: 0.295.
The figure for AACACGUUCUGGAAAAUAATT against HDDC3 is inactive: 0.549; for CCACAAGCGAGAAACUGCATT against SIGLEC8 it is inactive: 0.0069.
Take AAACAAGUAUCGUCAGGUATT against SSX5: the median seed-adjusted z-score was inactive: -0.0517.
The figure for CCUCCUAAUUUUAACGAAUTT against ZIC3 is inactive: -0.183; for GCAAUCACCUUACAUCCAATT against LIPE it is inactive: -0.276; for GAUGUAAACCCUGAACUAATT against CSRP2 it is inactive: -0.829.
The figure for GCACACCACGGAUCUAGAUTT against CKMT1B is inactive: -0.929; for CGAAAUCCUGAACACCUCATT against ANXA9 it is inactive: 0.055.
Take GGUUUUUGCUCAACGGAUUTT against PCDHGA9: the median seed-adjusted z-score was inactive: -0.125.
The figure for AGGUGACAGAACUUAUUAATT against GTF2A2 is inactive: 0.0457; for GGUUCUUCGAGAAAAUGGATT against KCNIP3 it is inactive: 0.283; for GCUCGGUGGUUGAUAAUCATT against SLC22A10 it is inactive: -0.0897.
In the case of CGGCUGCUGUGCUAUCAUUTT against SLC6A1 it was inactive: -0.122; in that of UGCAGACACUGAGCCCUGATT against DUSP5, inactive: 0.324; in that of CAUCAUCAUUGCUACUGGATT against TXNRD2, inactive: 0.459.
In the case of CGAUAUUGCAUGACAUUGATT against TPTE2 it was inactive: -0.0675; in that of CAGUCUCCAUGAUGCAGCATT against SS18L1, inactive: -0.174; in that of GCAUAGCAUAUAUUAGGCUTT against CAMK2D, inactive: 0.0676.
For AGCAAAGUGUUCUACCUGATT against YWHAG, the median seed-adjusted z-score was active: 1.98.
In the case of UCCUGUCAUUGCUUACUGATT against C3AR1 it was inactive: -0.916.
The figure for GAAGCUACUUCGUCAAGGATT against PI4K2A is inactive: -0.486; for GGCAGCUCAUCUCACGAAATT against ANXA9 it is inactive: 0.055.
On to CAUUGCAAGUUGUUCUUGATT against GJA4, for which the median seed-adjusted z-score is inactive: -0.18.
In the case of CGACAGAACCCGACUAUGUTT against PAX2 it was inactive: 0.341.
The figure for GUGACACUGAGGACGCUGATT against SLC16A8 is inactive: 0.192; for GCAGGGCGGUAUUGCUGUATT against LILRA3 it is inactive: -0.548; for UCGAGCAACUUAUUCCAUATT against MED30 it is active: -2.06.
In the case of GGAGCCUUGUUGAUCCUUATT against FRAP1 it was active: -1.02; in that of GGAUAUUGAUUUUCGGUAUTT against ZCCHC4, inactive: -0.0614.
In the case of CGAUAUUACCAAAUCGGUATT against LY75, the median seed-adjusted z-score is inactive: -0.0919.
The figure for GACAUAUCGCUGUUGUUUUTT against BIRC8 is inactive: 0.0184; for ACAUCGAGUCAGAUCUUCATT against SLC11A1 it is inactive: -0.516; for “UGAAAGUCUUUGACCAGGATT against LOC100137047-PLA2G4B” it is inactive: -0.022.
The figure for CGGUGAAGGUGCUAAAGGATT against RAD23A is active: -1.13; for GCAGAAUACCCUAUAGUUATT against PDC it is inactive: -0.541; for GGAUUUCUCAUGGAAGUUUTT against CUTC it is inactive: -0.377.
As to CGAUAAUCUGGGCUACAGATT against ADD1, the median seed-adjusted z-score was inactive: -0.0129.
As to GCACUUACGAUGACCGGCATT against TNFAIP1, the median seed-adjusted z-score is inactive: 0.0766.
The figure for CCAUUACGCUGCGGAAUCUTT against TREM2 is inactive: 0.057; for UGCUUAUUGUGAAAAUCCATT against RAB27B it is inactive: 0.
As to GGAAAUCAUAUGUUCGAAATT against CAPS2, the median seed-adjusted z-score was inactive: 0.135.
On to GGAACAGUACAGAGUUGUATT against ERC1, for which the median seed-adjusted z-score is inactive: 0.415.
The figure for AGCCUACACUCCAUAUUCATT against ZNF586 is inactive: -0.973.
The figure for GAUGAUCGCUUCAACCUGATT against DDX6 is active: 1.12; for CUAUUGUUGUUCGCAAUAATT against TTN it is inactive: 0.872.
On to CAGGUGCUUCGUUUCCUGATT against ARHGAP1, for which the median seed-adjusted z-score was active: -1.14.
Regarding CGGAGUCUGCGCUUCGUUATT against ACP2, the median seed-adjusted z-score is inactive: -0.00569.
As to GGUUGGAUGCUAUAUACCATT against ROS1, the median seed-adjusted z-score is inactive: -0.0561.
In the case of ACAAGUUCGUGGACGAAGATT against ARPC5 it was inactive: -0.479; in that of UGAACGUGCUUCUUUGUAATT against HOXB8, inactive: 0.133.
The figure for GAUGGUAUUUGUUCAAUGATT against ZNF460 is inactive: -0.302; for GGAUGUUCAGCGGUACCUATT against DNAH7 it is inactive: 0.287.
CAGACUUUGUGCCUCGUUATT against CUL9: the median seed-adjusted z-score was inactive: 0.399.
The figure for CCAACGUAGUGACCUAUUATT against STK39 is inactive: 0.232; for CGAUUCGCAUUAGUGCACATT against MYO5C it is inactive: 0; for CCGUCAAAAUCAUCGAGAATT against MKNK1 it is inactive: 0.221.
For the sequence GAAUAUUCUUGCAGAGUUUTT against WFDC5, the median seed-adjusted z-score was inactive: 0.
The figure for GGAUCAGGUGCACAUCAUATT against KCNK1 is inactive: 0.124.
The figure for AAAUAAACCGUGUAUUUAUTT against ING1 is inactive: 0.121; for GCUCAGCCCUUACGAAACATT against ZNF606 it is inactive: 0.118; for CUGCUUCGGGUGAACCAUATT against DHRS13 it is inactive: 0.192.
Take AGUGGAAGCUCAGCACAUATT against PYCRL: the median seed-adjusted z-score was inactive: 0.498.
In the case of UGAAGAUCCCGGACUCAUATT against PHF15 it was inactive: 0.
The figure for GCAAGGACCGGAACGAGAATT against RXRA is inactive: 0.304; for ACAAGAUGACCAACACUAATT against ARHGAP1 it is active: -1.14.
The figure for GGAAGUAGGAAGCAUCAUUTT against PCBP1 is inactive: 0.124.
In the case of GCACUAGACUAAAGGAGGATT against TTC1, the median seed-adjusted z-score was inactive: 0.3.
Consider GGGAUCCUAUUGGAAGAUATT against ACBD5, for which the median seed-adjusted z-score was inactive: -0.118.
In the case of CCAAUCCAGCAGAUUCAAATT against NME2 it was inactive: -0.0728; in that of CCAUUGAUCUGACCCUGCATT against MAPK7, inactive: -0.0118.
The figure for AGUCCAUCCUUAAGACUCATT against ZNF317 is inactive: 0.087.
On to AUAACGAUCUUCAACAAGATT against CYP4F12, for which the median seed-adjusted z-score is inactive: -0.564.
In the case of GUAUACACCUUAAAUGAUATT against HPR it was inactive: 0.237.
The figure for CGUCGUACGUGCUCAAGAATT against USP20 is inactive: -0.369.
Take CGCACAUCAUGGACCAGUATT against MAN2B2: the median seed-adjusted z-score is inactive: 0.0555.
Consider ACUCCUACAUGACCCUGAATT against FOXA3, for which the median seed-adjusted z-score is inactive: 0.128.
With CCACUACGAGAGUCGAAAATT against ZMAT4, the median seed-adjusted z-score is inactive: -0.0468.
In the case of GCACUGCGAGAUGAAGUAATT against KLHL10 it was inactive: 0.0708; in that of GGACCGUGUUCAACUCAGATT against TOM1, inactive: 0.774.
With GUAUGUUCCACAUAAUGAATT against CYP19A1, the median seed-adjusted z-score was inactive: -0.321.
The figure for GAAUUAAGAUGGGAAGAUATT against FOXD4L4 is inactive: -0.0372.
In the case of GCUGCUAAACAAAUCAAUATT against RGS1 it was inactive: 0.329; in that of GAAUAUCGGCAGAGAGAUATT against RNF12, inactive: 0.29; in that of CACAGUCGCUGGUCCUUAUTT against MSH5, inactive: -0.444.
Turning to GAGAUUUCUUUAGACAAAATT against DRD5, the median seed-adjusted z-score was inactive: -0.18.
As for AUGUCUUACCUAAAGAACUTT against AMY2B, the median seed-adjusted z-score is inactive: -0.564.
The figure for GGAGCACUGUAUUACAACATT against TMTC1 is inactive: -0.147; for CCCAAAAUCAUAAAGCGAATT against ZNF343 it is inactive: 0.0696.
With CGUAAGAGCUUACAACACUTT against CNTN6, the median seed-adjusted z-score is inactive: 0.
Turning to GGUGCUUUAUCACGAGUAUTT against SLC20A2, the median seed-adjusted z-score was inactive: -0.0546.
GCACUUGUCAGACACCACUTT against BRSK2: the median seed-adjusted z-score is inactive: -0.12.
In the case of GUAACAUGCCUGAUGGUUUTT against NOTCH2 it was inactive: 0.000598; in that of CCUUUAAGGUAGAGGAAGATT against NPM3, inactive: 0.0417.
In the case of GCACCGAACCCGUCUAUCATT against POU3F4 it was inactive: -0.314.
For the sequence GGAUCAUUCUCAACGGGAUTT against KCNV2, the median seed-adjusted z-score is active: -1.13.
In the case of GCUUAACUCCAACACGCAATT against PLAU, the median seed-adjusted z-score was inactive: 0.0765.
In the case of CAAUGAAAAUGCGAUACGATT against CSF2RB it was inactive: -0.454.
As for GCGGGUUCUUUGACGACAATT against SLC26A4, the median seed-adjusted z-score was inactive: 0.274.
As for GGUCCUUCCUAUAUAGUAUTT against GPR155, the median seed-adjusted z-score is inactive: 0.0681.
Take CAACGAGUAUAAGACAGAATT against PITPNM2: the median seed-adjusted z-score was inactive: 0.275.
The figure for GAAAUUGGAUUCUAAAGCATT against SYCP1 is inactive: -0.0197.
